Results taken from publication PMC4997571.
No constants are given. Whether binding was seen depends on the method and setting. For some assays here: Binding seen in cells or lysates may run through a third protein. Some results given as binding are weak or reduced against the parent protein; the word gives no strength. For some assays here: Sequences can lack the tags named with a protein.

Protein sequences, listed by entry. Tags and fused reporters are not part of them.
UniProt O14980: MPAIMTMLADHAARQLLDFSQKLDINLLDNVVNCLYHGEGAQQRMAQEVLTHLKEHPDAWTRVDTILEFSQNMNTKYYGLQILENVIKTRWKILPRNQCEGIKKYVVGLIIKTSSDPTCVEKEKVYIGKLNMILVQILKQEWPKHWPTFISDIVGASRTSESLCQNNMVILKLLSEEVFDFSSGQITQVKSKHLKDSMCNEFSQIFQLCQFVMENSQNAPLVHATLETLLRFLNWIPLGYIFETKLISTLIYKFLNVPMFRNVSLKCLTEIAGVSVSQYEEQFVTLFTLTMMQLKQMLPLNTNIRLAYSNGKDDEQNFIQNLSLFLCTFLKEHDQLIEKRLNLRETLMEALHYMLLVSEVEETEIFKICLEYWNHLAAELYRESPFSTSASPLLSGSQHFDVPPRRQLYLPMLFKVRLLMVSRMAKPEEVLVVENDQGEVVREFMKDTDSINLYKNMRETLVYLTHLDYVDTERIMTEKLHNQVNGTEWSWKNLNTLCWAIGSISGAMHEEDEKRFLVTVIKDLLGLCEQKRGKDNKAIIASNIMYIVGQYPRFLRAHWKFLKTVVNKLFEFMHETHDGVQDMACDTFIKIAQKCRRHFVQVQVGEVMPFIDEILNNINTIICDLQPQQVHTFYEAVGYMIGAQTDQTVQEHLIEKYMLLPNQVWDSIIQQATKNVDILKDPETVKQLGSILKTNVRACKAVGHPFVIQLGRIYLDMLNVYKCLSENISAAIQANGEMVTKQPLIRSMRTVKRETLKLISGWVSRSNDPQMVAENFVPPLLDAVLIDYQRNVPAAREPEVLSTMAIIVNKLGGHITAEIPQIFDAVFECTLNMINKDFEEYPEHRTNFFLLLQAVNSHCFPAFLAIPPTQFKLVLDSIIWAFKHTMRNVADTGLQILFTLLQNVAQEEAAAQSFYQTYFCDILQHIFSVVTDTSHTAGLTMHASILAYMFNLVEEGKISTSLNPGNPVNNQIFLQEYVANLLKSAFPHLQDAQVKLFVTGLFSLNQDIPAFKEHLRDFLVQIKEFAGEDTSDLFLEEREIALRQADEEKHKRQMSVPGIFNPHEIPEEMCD
UniProt P15682: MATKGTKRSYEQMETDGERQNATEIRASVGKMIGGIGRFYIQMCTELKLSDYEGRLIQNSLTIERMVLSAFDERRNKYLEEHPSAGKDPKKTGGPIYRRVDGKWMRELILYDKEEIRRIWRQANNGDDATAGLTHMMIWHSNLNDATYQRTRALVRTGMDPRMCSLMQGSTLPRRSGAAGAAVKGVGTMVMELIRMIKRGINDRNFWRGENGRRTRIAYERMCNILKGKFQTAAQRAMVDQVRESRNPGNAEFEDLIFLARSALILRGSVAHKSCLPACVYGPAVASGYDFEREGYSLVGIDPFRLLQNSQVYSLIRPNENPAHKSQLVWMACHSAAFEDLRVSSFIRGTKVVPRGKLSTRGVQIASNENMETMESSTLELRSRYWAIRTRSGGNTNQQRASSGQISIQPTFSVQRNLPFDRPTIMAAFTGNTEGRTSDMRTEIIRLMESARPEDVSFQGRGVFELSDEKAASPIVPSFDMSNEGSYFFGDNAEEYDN

How the values were obtained:
[1] = target: CRM1-HA (human (cDNA of HeLa cells)) (UniProt O14980); test: pull-down; both purified
[2] = target: T1, HA-NXT1 (human (cDNA of HeLa cells)) (UniProt Q9UKK6); test: pull-down; both purified
T1 sequence: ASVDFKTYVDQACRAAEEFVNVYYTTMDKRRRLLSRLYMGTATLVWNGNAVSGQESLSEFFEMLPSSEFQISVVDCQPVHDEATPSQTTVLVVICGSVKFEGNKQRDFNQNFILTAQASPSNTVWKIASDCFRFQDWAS

[3] = target: Influenza A/WSN/33 (H1N1) nucleoprotein with FLAG tag (NP-FLAG) (Influenza A/WSN/33 (H1N1)) (UniProt P15682); test: pull-down; only the target purified
[4] = target: Influenza A/WSN/33 (H1N1) nucleoprotein with FLAG tag (NP-FLAG) (Influenza A/WSN/33 (H1N1)) (UniProt P15682); test: co-IP

## Influenza A/WSN/33 (H1N1) nucleoprotein with FLAG tag (NP-FLAG) (from UniProt P15682 1-498)
[1]
  binding: binds
[2]
  binding: binds

## Chromosome region maintenance 1 (CRM1), endogenous (from UniProt O14980 1-1071)
[3]
  binding: binds

B1: Nuclear transport factor 2 (NTF2)-like export protein 1 (NXT1), endogenous (protein, UniProt Q9UKK6 1-140)
chain: MASVDFKTYVDQACRAAEEFVNVYYTTMDKRRRLLSRLYMGTATLVWNGNAVSGQESLSEFFEMLPSSEFQISVVDCQPVHDEATPSQTTVLVVICGSVKFEGNKQRDFNQNFILTAQASPSNTVWKIASDCFRFQDWAS
[3]
  binding: binds

B2: HA-NXT1 (protein, UniProt Q9UKK6 2-140)
chain: T1 sequence
[4]
  binding: binds
